According to PubChem BioAssay (NCATS):
Values joined by “and” are separate entries in the source; they are usually repeats but may differ in a detail not shown here. Equal entries are not always repeated. The inconclusive results got no clear call from the source; some entries with a clear call stand among them for comparison. Where the call is inconclusive, the potency comes from a doubtful curve fit. Active and inactive are the calls of the source. Calls follow the shape of the dose curve; as a rule, active = well fitted curve in the direction sought with a large enough effect; inconclusive = small, poorly fitted or top-dose-only effect, or another doubt; inactive = no such curve, though single readings can be large; an effect the other way counts as inactive or inconclusive.

experiment: Quantitative highthroughput screen to assess conditional lethalithy of P12 Ichikawa cells grown in RPMI1640 with dialyzed fetal bovine serum (RPMI+ds) (AID 1963880); conditions: ATP luminescence, 48 h; Potency: P12-Ichikawa viability; series mostly up to 45.8 µM; viability: at the top concentration;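 as to viability: 100% = DMSO wells and 0% = empty wells on each plate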
Procedure, shortened: (§1)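 Each medium arm—HPLM with 10% dialyzed FBS, or RPMI1640 with 5 mM glucose and 10% untreated or dialyzed FBS—was screened against an 11-point, 3-fold compound titration for 48 h at 37 °C, with CellTiter-Glo luminescence as endpoint.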
Also: nearly all actives have a fitted effect of over 35% in size.
Potency is read from the fitted curve at half-maximal effect.

Compound	Potency	viability
CC(C)(C)NC(=O)[C@H]1CN(Cc2cccnc2)CCN1C[C@@H](O)C[C@@H](Cc1ccccc1)C(=O)N[C@H]1c2ccccc2C[C@H]1O	inconclusive: 20.9 µM [cytotoxic, partial curve]	
CN1CCN(c2cccc(Nc3nc4c(-c5ccc(S(C)(=O)=O)cc5)cccn4n3)c2)CC1	inconclusive: 16.6 µM [cytotoxic, partial curve]	
COc1cc(N2CCC(O)CC2)ccc1Nc1cc(Nc2ccccc2S(=O)(=O)C(C)C)c2cc[nH]c2n1		inactive: 98.3%
Cc1nc(NC(=O)N2CCC[C@@H]2C(N)=O)sc1-c1ccnc(C(C)(C)C(F)(F)F)c1	active: 5.9 µM	
Nc1nc(Nc2ccc(S(N)(=O)=O)cc2)nn1C(=O)c1c(F)cccc1F	inconclusive: 26.4 µM [cytotoxic, single point]	
COc1ccc([C@@H]2CC(=O)c3c(O)cc(O[C@@H]4O[C@H](CO[C@@H]5O[C@@H](C)[C@H](O)[C@@H](O)[C@@H]5O)[C@@H](O)[C@H](O)[C@@H]4O)cc3O2)cc1O	inactive	
C[C@H]1[C@H](O)O[C@@H]2O[C@@]3(C)CC[C@@H]4[C@H](C)CC[C@@H]1[C@@]24OO3	inconclusive: 2.35 µM [cytotoxic, full curve]	
O=c1c(-c2ccc(O)cc2)coc2cc(O[C@@H]3O[C@H](CO)[C@H](O)[C@H](O)[C@H]3O)ccc12		inactive: 109%
C[C@H]1C[C@@H]2[C@@H]([C@@H](O)C[C@@]3(C)[C@H]2CC[C@]3(O)C(=O)CO)[C@@]2(C)C=CC(=O)C=C12	inconclusive: 0.332 µM [cytotoxic, full curve]	
Nc1ccccc1NC(=O)c1ccc(CNC(=O)OCc2cccnc2)cc1	active: 2.35 µM	
Cc1cnc(Nc2ccc(F)cc2Cl)nc1-c1c[nH]c(C(=O)N[C@H](CO)c2cccc(Cl)c2)c1	inconclusive: 3.72 µM [cytotoxic, full curve]	
Nc1ncnc2c1ncn2[C@@H]1O[C@H](CO)[C@@H](O)[C@@H]1O	active: 14.8 µM	
COc1cc(N2CCN(C)CC2)ccc1Nc1nc(N)c(C(=O)c2c(Cl)cccc2Cl)s1	inconclusive: 26.4 µM [cytotoxic, single point]	
CCCCN1CCC(CNC(=O)c2c3n(c4ccccc24)CCCO3)CC1	inconclusive: 16.6 µM [cytotoxic, partial curve, poor fit]	
O=C(O)c1ccccc1C(=O)Nc1ccc(-c2ccccc2)cc1		inactive: 102%
C#C[C@]1(O)CC[C@H]2[C@H]3CCc4cc(OC)ccc4[C@H]3CC[C@@]21C		inactive: 97.3%

experiment: Quantitative highthroughput screen to assess conditional lethalithy of P12 Ichikawa cells grown in RPMI1640 with untreated serum (RPMI+s) (AID 1963881); conditions: ATP luminescence, 48 h; Potency: viability; series mostly up to 45.8 µM; viability: at the top concentration;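 as to viability: 100% = DMSO wells and 0% = empty wells without cells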
Procedure, shortened: as §1

Compound	Potency	viability
CC(C)(C)NC(=O)[C@H]1CN(Cc2cccnc2)CCN1C[C@@H](O)C[C@@H](Cc1ccccc1)C(=O)N[C@H]1c2ccccc2C[C@H]1O	inconclusive: 20.9 µM [cytotoxic, partial curve]	
CN1CCN(c2cccc(Nc3nc4c(-c5ccc(S(C)(=O)=O)cc5)cccn4n3)c2)CC1	inconclusive: 20.9 µM [cytotoxic, partial curve]	
COc1cc(N2CCC(O)CC2)ccc1Nc1cc(Nc2ccccc2S(=O)(=O)C(C)C)c2cc[nH]c2n1		inactive: 92.4%
Nc1nc(Nc2ccc(S(N)(=O)=O)cc2)nn1C(=O)c1c(F)cccc1F	inconclusive: 23.5 µM [cytotoxic, partial curve]	
CC1(C)CCC[C@@]2(C)[C@@H]1CC[C@@]1(C)OC(=O)C[C@H]21		inactive: 90.7%
C[C@H]1[C@H](O)O[C@@H]2O[C@@]3(C)CC[C@@H]4[C@H](C)CC[C@@H]1[C@@]24OO3	active: 2.96 µM	
O=c1c(-c2ccc(O)cc2)coc2cc(O[C@@H]3O[C@H](CO)[C@H](O)[C@H](O)[C@H]3O)ccc12		inactive: 106%
C[C@H]1C[C@@H]2[C@@H]([C@@H](O)C[C@@]3(C)[C@H]2CC[C@]3(O)C(=O)CO)[C@@]2(C)C=CC(=O)C=C12	inconclusive: 0.209 µM [cytotoxic, full curve]	
Nc1ccccc1NC(=O)c1ccc(CNC(=O)OCc2cccnc2)cc1	active: 2.64 µM	
Cc1cnc(Nc2ccc(F)cc2Cl)nc1-c1c[nH]c(C(=O)N[C@H](CO)c2cccc(Cl)c2)c1	inconclusive: 2.64 µM [cytotoxic, full curve]	
COc1cc(N2CCN(C)CC2)ccc1Nc1nc(N)c(C(=O)c2c(Cl)cccc2Cl)s1	inconclusive: 33.2 µM [cytotoxic, single point]	
CC(C)c1onc(-c2c(Cl)cccc2Cl)c1COc1ccc(C=Cc2cccc(C(=O)O)c2)c(Cl)c1		inactive: 88.2%
O=C(O)c1ccccc1C(=O)Nc1ccc(-c2ccccc2)cc1		inactive: 101%
Cc1ccc(CN2CCNCC2)cc1NC(=O)CNc1ccc(F)c(F)c1		inactive: 105%

experiment: Quantitative highthroughput screen to assess conditional lethalithy of SEM cells grown in Human Plasma-Like Medium with dialyzed fetal bovine serum (HPLM+ds) (AID 1963882); conditions: SEM B-ALL cells in HPLM+ds, CellTiter-Glo viability, 48 h; series mostly up to 45.8 µM; viability: at the top concentration
Procedure, shortened: as §1

Compound	Potency	viability
CN1CCN(c2cccc(Nc3nc4c(-c5ccc(S(C)(=O)=O)cc5)cccn4n3)c2)CC1	inconclusive: 2.96 µM [cytotoxic, full curve]	
COc1cc(N2CCC(O)CC2)ccc1Nc1cc(Nc2ccccc2S(=O)(=O)C(C)C)c2cc[nH]c2n1	inconclusive: 0.295 µM [cytotoxic, full curve, poor fit]	
CC1(C)[C@H](O[C@H]2O[C@H](C(=O)O)[C@@H](O)[C@H](O)[C@H]2O[C@@H]2O[C@H](C(=O)O)[C@@H](O)[C@H](O)[C@H]2O)CC[C@@]2(C)[C@H]1CC[C@]1(C)[C@H]2C(=O)C=C2[C@H]3C[C@@](C)(C(=O)O)CC[C@]3(C)CC[C@]21C		inactive: 115%
CCCn1c(=O)c2[nH]c(C34CC5CC3C[C@@H](C5)C4)nc2n(CCC)c1=O		inactive: 98.4%
Cc1nc(NC(=O)N2CCC[C@@H]2C(N)=O)sc1-c1ccnc(C(C)(C)C(F)(F)F)c1	active: 1.48 µM	
Nc1nc(Nc2ccc(S(N)(=O)=O)cc2)nn1C(=O)c1c(F)cccc1F	active: 8.33 µM	
COc1ccc([C@@H]2CC(=O)c3c(O)cc(O[C@@H]4O[C@H](CO[C@@H]5O[C@@H](C)[C@H](O)[C@@H](O)[C@@H]5O)[C@@H](O)[C@H](O)[C@@H]4O)cc3O2)cc1O	inactive and inconclusive: 23.5 µM [cytotoxic, single point]	
OCCn1cc(-c2ccc3c(c2)CCC3=NO)c(-c2ccncc2)n1		inactive: 91.9%
CC[C@H]1OC(=O)[C@H](C)C(=O)[C@H](C)[C@@H](O[C@H]2O[C@H](C)C[C@H](N(C)C)[C@@H]2O)[C@](C)(OC)C[C@@H](C)C(=O)[C@H](C)[C@H]2N(CCCCn3cnc(-c4cccnc4)c3)C(=O)O[C@]12C		inactive: 86.2%
C[C@H]1C[C@@H]2[C@@H]([C@@H](O)C[C@@]3(C)[C@H]2CC[C@]3(O)C(=O)CO)[C@@]2(C)C=CC(=O)C=C12	inconclusive: 0.332 µM [cytotoxic, full curve]	
C=C1[C@H](n2cnc3c(=O)[nH]c(N)nc32)C[C@H](O)[C@H]1CO	active: 0.187 µM	
Cc1cnc(Nc2ccc(F)cc2Cl)nc1-c1c[nH]c(C(=O)N[C@H](CO)c2cccc(Cl)c2)c1	inconclusive: 26.4 µM [cytotoxic, single point]	
Nc1ncnc2c1ncn2[C@@H]1O[C@H](CO)[C@@H](O)[C@@H]1O		inactive: 80.8%
COc1cc(N2CCN(C)CC2)ccc1Nc1nc(N)c(C(=O)c2c(Cl)cccc2Cl)s1	inconclusive: 20.9 µM [cytotoxic, partial curve]	
CN[C@H]1[C@@H](O)[C@@H]2O[C@@H]3O[C@H](C)CC(=O)[C@]3(O)O[C@@H]2[C@@H](NC)[C@H]1O		inactive: 105%
O=C(O)c1ccccc1C(=O)Nc1ccc(-c2ccccc2)cc1	inconclusive: 0.0012 µM [rising, full curve]	
C#C[C@]1(O)CC[C@H]2[C@H]3CCc4cc(OC)ccc4[C@H]3CC[C@@]21C		inactive: 106%
